# No constants are given. Whether binding was seen depends on the method and setting. Some entries that bind do so weakly or less than the wild type.
# Protein sequences, listed by entry. Tags and fused reporters are not part of them. Lines headed by an entry give the natural chain unless they say otherwise; changes in a name come on top. Residues count along the entry.
# UniProt Q08460: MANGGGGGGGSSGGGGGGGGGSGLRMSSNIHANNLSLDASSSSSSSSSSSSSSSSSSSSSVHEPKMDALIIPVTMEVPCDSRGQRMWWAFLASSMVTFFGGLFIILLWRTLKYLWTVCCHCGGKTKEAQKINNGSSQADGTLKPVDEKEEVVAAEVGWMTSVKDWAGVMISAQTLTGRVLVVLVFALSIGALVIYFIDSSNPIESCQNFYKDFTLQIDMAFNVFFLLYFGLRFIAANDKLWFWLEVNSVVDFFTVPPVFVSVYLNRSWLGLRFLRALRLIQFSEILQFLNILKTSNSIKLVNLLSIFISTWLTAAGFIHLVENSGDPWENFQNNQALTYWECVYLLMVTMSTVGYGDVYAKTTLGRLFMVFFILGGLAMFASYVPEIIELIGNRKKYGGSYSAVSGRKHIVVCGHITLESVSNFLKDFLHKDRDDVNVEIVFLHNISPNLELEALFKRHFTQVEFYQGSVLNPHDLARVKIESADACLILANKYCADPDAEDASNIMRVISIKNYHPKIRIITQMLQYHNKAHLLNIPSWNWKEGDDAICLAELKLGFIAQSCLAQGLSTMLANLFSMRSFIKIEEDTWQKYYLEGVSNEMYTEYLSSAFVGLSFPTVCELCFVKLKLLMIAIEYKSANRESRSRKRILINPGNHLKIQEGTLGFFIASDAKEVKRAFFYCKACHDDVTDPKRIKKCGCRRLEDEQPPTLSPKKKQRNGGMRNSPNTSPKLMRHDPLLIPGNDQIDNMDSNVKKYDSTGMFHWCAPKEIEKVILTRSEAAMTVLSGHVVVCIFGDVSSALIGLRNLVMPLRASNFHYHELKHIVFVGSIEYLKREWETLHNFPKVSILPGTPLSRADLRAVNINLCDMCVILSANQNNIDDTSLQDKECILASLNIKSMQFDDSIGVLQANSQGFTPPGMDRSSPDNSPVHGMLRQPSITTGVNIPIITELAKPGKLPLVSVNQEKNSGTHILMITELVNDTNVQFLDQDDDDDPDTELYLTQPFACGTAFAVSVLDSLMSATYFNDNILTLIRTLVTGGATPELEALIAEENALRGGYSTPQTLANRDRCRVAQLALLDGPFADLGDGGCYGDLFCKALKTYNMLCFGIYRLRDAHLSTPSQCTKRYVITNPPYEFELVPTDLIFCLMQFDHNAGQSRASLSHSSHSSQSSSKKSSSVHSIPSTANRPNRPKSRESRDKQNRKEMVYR
# UniProt P13487, residues 23-59: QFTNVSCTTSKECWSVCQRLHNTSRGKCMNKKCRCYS
# Molecular target: mSlo1/β4 channel (mouse | human) (UniProt Q08460)
# Experiment: patch-clamp electrophysiology (time course of current block); outside-out patches of transfected HEK293 cells perfused with 1 μM ChTX; steps to +100 mV, intracellular 10 μM Ca2+; τon and τoff fitted to a first order bimolecular reaction scheme; KD = [ChTX]/((τoff/τon) − 1); only the binder purified
substance,measurement,value
Charybdotoxin (from UniProt P13487 23-59) (peptide),binding,binds weakly

# Reference: paper PMC5854672, “Solution structure of extracellular loop of human β4 subunit of BK channel and its biological implication on ChTX sensitivity” (Scientific Reports, 2018)
